The list is a part of this screen's results and no random one: it gathers some chemical classes. Other doses and runs of a compound may be missing. T/C gives the treated animals as a percentage of the vehicle group. Some doses have a count of surviving animals in place of a T/C: the source files T/C as zero there, which appears to mark a toxic dose or a test without result, not a measured value. Some survivor counts are full or nearly so, which does not show that the dose was tolerated: survival well below the control is almost never listed, so the zero probably covers shortened survival too. Counts of survivors are from the toxicity check (mostly the fifth day) where no day follows; animals may have died later. Schedule codes are those of the source, taken here to give the interval after Q, in days (D) or hours (H), and the number of doses after X. Some doses were run more than once; the values are given in rising order. Some schedules carry Z or #; the key to these is not given. Some metal complexes and salts are drawn in pieces, as in the source, so charges may not balance. Where survival is the endpoint, the PubChem record calls one and a half times the control and up active, and a quarter to a half above the control has no call in these data; cut-offs in other NCI protocols can differ. Some T/C values carry the count of animals alive at the toxicity check (mostly the fifth day); where neither a count nor a note follows, no animal had died by that day. Some T/C values are marked as having no survivor count here; that says nothing about deaths at the dose.
Tested on: L1210 leukemia ip in BDF1 mice, survival T/C
Test: NCI In Vivo Anticancer Drug Screen. Data for tumor model L1210 Leukemia (intraperitoneal) in B6D2F1 (BDF1) mice
Conditions: T/C endpoint: mean survival time, higher T/C = longer survival
[1] = dose: 25.0 mg/kg/injection, schedule: Q01DX001 (ip), vehicle: saline
[2] = dose: 16.0 mg/kg/injection, schedule: Q01DX Z (ip), vehicle: saline
[3] = dose: 100.0 mg/kg/injection, schedule: Q01DX001 (ip), vehicle: saline
[4] = dose: 200.0 mg/kg/injection, schedule: Q01DX001 (ip), vehicle: saline
[5] = dose: 12.5 mg/kg/injection, schedule: Q01DX009 (ip), vehicle: saline with Tween-80
[6] = dose: 25.0 mg/kg/injection, schedule: Q01DX009 (ip), vehicle: saline with Tween-80
[7] = dose: 50.0 mg/kg/injection, schedule: Q01DX009 (ip), vehicle: saline with Tween-80
[8] = dose: 100.0 mg/kg/injection, schedule: Q01DX009 (ip), vehicle: saline with Tween-80
[9] = dose: 200.0 mg/kg/injection, schedule: Q01DX009 (ip), vehicle: saline with Tween-80
[10] = dose: 6.25 mg/kg/injection, schedule: Q01DX009 (ip), vehicle: saline with Tween-80

SMILES: O=C(O)Cc1ccc(N(CCCl)CCCl)cc1
- T/C (dose: 0.5 mg/kg/injection, schedule: Q01DX015 (ip), vehicle: carboxymethylcellulose (CMC)): 100 % of control
- T/C (dose: 1.0 mg/kg/injection, schedule: Q01DX015 (ip), vehicle: carboxymethylcellulose (CMC)): 100 [5 of 6 alive] and 107 % of control
- T/C (dose: 2.0 mg/kg/injection, schedule: Q01DX015 (ip), vehicle: carboxymethylcellulose (CMC)): 107 and 128 % of control
- T/C (dose: 2.0 mg/kg/injection, schedule: Q01DX Z (ip), vehicle: carboxymethylcellulose (CMC)): 111 % of control
- T/C (dose: 4.0 mg/kg/injection, schedule: Q01DX015 (ip), vehicle: carboxymethylcellulose (CMC)): 114 and 123 % of control
- T/C (dose: 4.0 mg/kg/injection, schedule: Q01DX Z (ip), vehicle: carboxymethylcellulose (CMC)): 124 % of control
- T/C (dose: 6.0 mg/kg/injection, schedule: Q01DX015 (ip), vehicle: carboxymethylcellulose (CMC)): 125 % of control
- T/C (dose: 6.0 mg/kg/injection, schedule: Q01DX Z (ip), vehicle: carboxymethylcellulose (CMC)): 128 % of control
- T/C (dose: 8.0 mg/kg/injection, schedule: Q01DX015 (ip), vehicle: carboxymethylcellulose (CMC)): 109 and 150 % of control
- T/C (dose: 8.0 mg/kg/injection, schedule: Q01DX Z (ip), vehicle: carboxymethylcellulose (CMC)): 114 and 124 % of control [5 of 6 alive]
- T/C (dose: 10.0 mg/kg/injection, schedule: Q01DX001 (ip), vehicle: saline): 100 % of control
- T/C (dose: 10.0 mg/kg/injection, schedule: Q01DX015 (ip), vehicle: carboxymethylcellulose (CMC)): 121 % of control
- T/C (dose: 10.0 mg/kg/injection, schedule: Q01DX Z (ip), vehicle: carboxymethylcellulose (CMC)): 122 % of control
- T/C (dose: 12.0 mg/kg/injection, schedule: Q01DX015 (ip), vehicle: carboxymethylcellulose (CMC)): 137 % of control
- T/C (dose: 12.0 mg/kg/injection, schedule: Q01DX Z (ip), vehicle: carboxymethylcellulose (CMC)): 107 % of control
- T/C (dose: 14.0 mg/kg/injection, schedule: Q01DX015 (ip), vehicle: carboxymethylcellulose (CMC)): 146 % of control
- T/C (dose: 16.0 mg/kg/injection, schedule: Q01DX015 (ip), vehicle: carboxymethylcellulose (CMC)): 90 and 141 % of control [5 of 6 alive]
- survivor count (dose: 16.0 mg/kg/injection, schedule: Q01DX Z (ip), vehicle: carboxymethylcellulose (CMC)): 0 of 6
- T/C [1]: 100 % of control
- survivor count (dose: 32.0 mg/kg/injection, schedule: Q01DX015 (ip), vehicle: carboxymethylcellulose (CMC)): 0 of 6
- T/C (dose: 40.0 mg/kg/injection, schedule: Q01DX001 (ip), vehicle: saline): 109 % of control
- T/C (dose: 60.0 mg/kg/injection, schedule: Q01DX001 (ip), vehicle: saline): 104 % of control
- survivor count (dose: 64.0 mg/kg/injection, schedule: Q01DX015 (ip), vehicle: carboxymethylcellulose (CMC)): 0 of 6
- survivor count (dose: 75.0 mg/kg/injection, schedule: Q01DX001 (ip), vehicle: saline): 2 of 6
- survivor count (dose: 150.0 mg/kg/injection, schedule: Q01DX001 (ip), vehicle: saline): 1 of 6
- survivor count (dose: 300.0 mg/kg/injection, schedule: Q01DX001 (ip), vehicle: saline): 0 of 6

SMILES: O=[N+]([O-])c1cc(N=[N+]([O-])c2cc([N+](=O)[O-])cc([N+](=O)[O-])c2)cc([N+](=O)[O-])c1
- T/C (dose: 44.4 mg/kg/injection, schedule: Q01DX001 (ip), vehicle: carboxymethylcellulose (CMC)): 91 [survivor count not shown] and 109 % of control [survivor count not shown]
- T/C (dose: 66.7 mg/kg/injection, schedule: Q01DX001 (ip), vehicle: carboxymethylcellulose (CMC)): 90 [survivor count not shown] and 93 % of control [survivor count not shown]
- T/C (dose: 100.0 mg/kg/injection, schedule: Q01DX001 (ip), vehicle: carboxymethylcellulose (CMC)): 91 [survivor count not shown], 93 [survivor count not shown], 169 % of control [survivor count not shown]
- T/C (dose: 150.0 mg/kg/injection, schedule: Q01DX001 (ip), vehicle: carboxymethylcellulose (CMC)): 91 [survivor count not shown] and 98 % of control [survivor count not shown]
- T/C (dose: 200.0 mg/kg/injection, schedule: Q01DX001 (ip), vehicle: carboxymethylcellulose (CMC)): 96 % of control [survivor count not shown]
- T/C (dose: 400.0 mg/kg/injection, schedule: Q01DX001 (ip), vehicle: carboxymethylcellulose (CMC)): 91 % of control [survivor count not shown]

SMILES: CO/C(N)=N\[N+](=O)[O-]
- T/C (dose: 8.0 mg/kg/injection, schedule: Q01DX Z (ip), vehicle: saline): 95 % of control
- T/C [2]: 96 % of control
- T/C (dose: 31.0 mg/kg/injection, schedule: Q01DX Z (ip), vehicle: saline): 104 % of control
- T/C (dose: 62.0 mg/kg/injection, schedule: Q01DX Z (ip), vehicle: saline): 98 % of control
- T/C (dose: 125.0 mg/kg/injection, schedule: Q01DX Z (ip), vehicle: saline): 104 % of control
- T/C (dose: 250.0 mg/kg/injection, schedule: Q01DX Z (ip), vehicle: saline): 101 % of control
- survivor count (dose: 500.0 mg/kg/injection, schedule: Q01DX Z (ip), vehicle: saline): 0 of 6

SMILES: CCOP(=O)(CC)OCCBr (centres undefined)
- T/C (dose: 100.0 mg/kg/injection, schedule: Q04DX002 (ip), vehicle: saline with Tween-80): 101 % of control [survivor count not shown]
- T/C (dose: 200.0 mg/kg/injection, schedule: Q04DX002 (ip), vehicle: saline with Tween-80): 96 % of control [survivor count not shown]
- T/C (dose: 400.0 mg/kg/injection, schedule: Q04DX002 (ip), vehicle: saline with Tween-80): 89 % of control [survivor count not shown]

SMILES: CC1=NCCN(C)CCN(C)CCN=C(C)C1.F[P-](F)(F)(F)(F)F.[Ni+2]
- T/C [1]: 102 % of control
- T/C (dose: 50.0 mg/kg/injection, schedule: Q01DX001 (ip), vehicle: saline): 95 % of control
- survivor count [3]: 0 of 3
- survivor count [4]: 0 of 3

SMILES: CCOC(=O)NP(=O)(NC(=O)NOC)NC(=O)NOC
- T/C [3]: 95 % of control
- T/C [4]: 100 % of control
- T/C (dose: 400.0 mg/kg/injection, schedule: Q01DX001 (ip), vehicle: saline): 101 % of control

SMILES: CCOP1(N)=NP(Cl)(Cl)=NP(Cl)(Cl)=N1 (centres undefined)
- T/C [5]: 100 % of control
- T/C [6]: 105 % of control
- T/C [7]: 98 and 100 % of control
- survivor count [8]: 3 of 6
- survivor count [9]: 0 of 6

SMILES: CC1CC[P+](C)(c2ccccc2)c2ccccc21.F[P-](F)(F)(F)(F)F (centres undefined)
- T/C (dose: 3.13 mg/kg/injection, schedule: Q01DX009 (ip), vehicle: saline with Tween-80): 107 % of control
- survivor count [10]: 3 of 3
- survivor count [5]: 0 of 3 and 1 of 3
- survivor count [6]: 0 of 3
- survivor count [7]: 0 of 3
- survivor count [8]: 0 of 3
- survivor count [9]: 0 of 3

SMILES: BrCc1cccc(CBr)c1
- T/C [10]: 97 % of control
- T/C (dose: 6.25 mg/kg/injection, schedule: Q04DX003 (ip), vehicle: saline with Tween-80): 87 % of control
- T/C [5]: 92 % of control
- T/C (dose: 12.5 mg/kg/injection, schedule: Q04DX003 (ip), vehicle: saline with Tween-80): 87 % of control
- survivor count [6]: 5 of 6
- T/C (dose: 25.0 mg/kg/injection, schedule: Q04DX003 (ip), vehicle: saline with Tween-80): 88 % of control
- survivor count (dose: 100.0 mg/kg/injection, schedule: Q04DX003 (ip), vehicle: Klucel (hydroxypropylcellulose) (HPC)): 0 of 6
- survivor count (dose: 200.0 mg/kg/injection, schedule: Q04DX003 (ip), vehicle: Klucel (hydroxypropylcellulose) (HPC)): 0 of 6
- survivor count (dose: 400.0 mg/kg/injection, schedule: Q04DX003 (ip), vehicle: Klucel (hydroxypropylcellulose) (HPC)): 0 of 6

SMILES: CCNP(=O)(OCc1ccccc1)N(CCCl)CCCl (centres undefined)
- T/C [2]: 95 % of control
- T/C (dose: 32.0 mg/kg/injection, schedule: Q01DX Z (ip), vehicle: saline): 109 % of control
- T/C (dose: 64.0 mg/kg/injection, schedule: Q01DX Z (ip), vehicle: saline): 109 % of control
- T/C (dose: 128.0 mg/kg/injection, schedule: Q01DX Z (ip), vehicle: saline): 117 % of control
